# According to the supplement of paper PMC8728848:
# This is one part of the list.
# B1: PX14351B-bth-512-36-512 (Bacteroides thetaiotaomicron) (protein)
# chain: ASETQQWKTLEDTRSALMGVYGLTRAALADNNTHWICGDLRKGDFTVYKRSDLQAVSDNELNKPYDLLKKVSNWRRFYAVINAASVFMEKAPRTVELDRSYSEQNLKYDIAQVRALRAFAYFYMVRIWGDVPLVTYSYDNGTFPSMPRTDAQTVLSYAKAELLTAIEDLPYQYGTQTNLYYGSYGAQWQGKLFNKLSAYSVLAHICAWQGNYAEAETYSAFIIDHASEINAKYTSIADLTSETGLFYSNASVKGSRILGFNFAHNDNEATQSGHLEQLTLAYPLVQKSYPEIYISKDSLFSIFTNFDDLRFGIIDTIKYSSYYVQNLNEETPVFSKIKIIQDGSAKDNDFGVFGSSIVFTRLEDITLLRAEALCALNRSTEAVSYLNMIRTNRGLREVSFKKDFGNNRESLIAEIFEERRRELMGEGWRWYDLVRRQKLMKDNEAFLRLISSGGIYWPVSEDIITANSQIEQNEFWK
# How the values were obtained:
# Test in all cases: glycan array binding signal (z-score within array); higher = stronger binding
# Settings in all cases: glycan notation: IUPAC condensed, linker removed
# [1] = target: Fuc(a1-3)[Gal(b1-4)]GlcNAc(b1-2)Man(a1-3)[Fuc(a1-3)[Gal(b1-4)]GlcNAc(b1-2)Man(a1-6)]Man(b1-4)GlcNAc(b1-4)GlcNAc
# How it was run: (§1)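 The binding signal is a Z-score computed within each array and averaged over linkers. Arrays of the same protein sequence at different concentrations or buffers were also averaged together. Data originate from 3228 arrays in the Consortium for Functional Glycomics database, kept only where the protein sequence was available.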
# [2] = target: Fuc(a1-3)[Gal(b1-4)]GlcNAc(b1-2)Man(a1-3)[Fuc(a1-3)[Gal(b1-4)]GlcNAc(b1-2)Man(a1-6)]Man(b1-4)GlcNAc(b1-4)[Fuc(a1-6)]GlcNAc
# How it was run: as §1
# [3] = target: Fuc(a1-3)[Gal(b1-4)]GlcNAc(b1-3)Gal(b1-3)[Fuc(a1-4)]GlcNAc
# How it was run: as §1
# [4] = target: Fuc(a1-3)[Gal(b1-4)]GlcNAc(b1-3)Gal(b1-4)[Fuc(a1-3)]GlcNAc
# How it was run: as §1
# [5] = target: Fuc(a1-3)[Gal(b1-4)]GlcNAc(b1-3)GalNAc
# How it was run: as §1
# [6] = target: Fuc(a1-3)[Gal(b1-4)]GlcNAc(b1-6)GalNAc
# How it was run: as §1
# [7] = target: Fuc(a1-3)[Gal(b1-4)]GlcNAc(b1-6)[Gal(b1-3)GlcNAc(b1-3)]Gal(b1-4)Glc
# How it was run: as §1
# [8] = target: Fuc(a1-3)[Gal(b1-4)]GlcNAc6S
# How it was run: as §1
# [9] = target: Fuc(a1-3)[Gal3S(b1-4)]Glc
# How it was run: as §1
# [10] = target: Fuc(a1-3)[Gal3S(b1-4)]GlcNAc
# How it was run: as §1
# [11] = target: Fuc(a1-3)[Gal3S(b1-4)]GlcNAc6S
# How it was run: as §1
# [12] = target: Fuc(a1-3)[GalNAc(b1-4)]GlcNAc
# How it was run: as §1
# [13] = target: Fuc(a1-4)GlcNAc
# How it was run: as §1
# [14] = target: Fuc(b1-3)GlcNAc
# How it was run: as §1
# [15] = target: Gal(a1-2)Gal
# How it was run: as §1
# [16] = target: Gal(a1-3)Gal
# How it was run: as §1
# [17] = target: Gal(a1-3)Gal(b1-3)GlcNAc
# How it was run: as §1
# [18] = target: Gal(a1-3)Gal(b1-3)GlcNAc(b1-2)Man
# How it was run: as §1
# [19] = target: Gal(a1-3)Gal(b1-3)GlcNAc(b1-2)Man(a1-3)[Gal(a1-3)Gal(b1-3)GlcNAc(b1-2)Man(a1-6)]Man(b1-4)GlcNAc(b1-4)GlcNAc
# How it was run: as §1
# [20] = target: Gal(a1-3)Gal(b1-3)GlcNAc(b1-3)GalNAc
# How it was run: as §1
# [21] = target: Gal(a1-3)Gal(b1-3)GlcNAc(b1-6)GalNAc
# How it was run: as §1
# [22] = target: Gal(a1-3)Gal(b1-4)Glc
# How it was run: as §1
# [23] = target: Gal(a1-3)Gal(b1-4)GlcNAc
# How it was run: as §1
# [24] = target: Gal(a1-3)Gal(b1-4)GlcNAc(b1-2)Man(a1-3)[Gal(a1-3)Gal(b1-4)GlcNAc(b1-2)Man(a1-6)]Man(b1-4)GlcNAc(b1-4)GlcNAc
# How it was run: as §1
# [25] = target: Gal(a1-3)Gal(b1-4)[Fuc(a1-3)]GlcNAc
# How it was run: as §1
# [26] = target: Gal(a1-3)Gal(b1-4)[Fuc(a1-3)]GlcNAc(b1-2)Man(a1-3)[Gal(a1-3)Gal(b1-4)[Fuc(a1-3)]GlcNAc(b1-2)Man(a1-6)]Man(b1-4)GlcNAc(b1-4)GlcNAc
# How it was run: as §1
# [27] = target: Gal(a1-3)GalNAc
# How it was run: as §1
# [28] = target: Gal(a1-3)[Gal(a1-4)]Gal(b1-4)GlcNAc
# How it was run: as §1
# [29] = target: Gal(a1-4)Gal(b1-3)GlcNAc(b1-2)Man(a1-3)[Gal(a1-4)Gal(b1-3)GlcNAc(b1-2)Man(a1-6)]Man(b1-4)GlcNAc(b1-4)GlcNAc
# How it was run: as §1
# [30] = target: Gal(a1-4)Gal(b1-4)Glc
# How it was run: as §1
# [31] = target: Gal(a1-4)Gal(b1-4)GlcNAc
# How it was run: as §1
# [32] = target: Gal(a1-4)Gal(b1-4)GlcNAc(b1-2)Man(a1-3)[Gal(a1-4)Gal(b1-4)GlcNAc(b1-2)Man(a1-6)]Man(b1-4)GlcNAc(b1-4)GlcNAc
# How it was run: as §1
# [33] = target: Gal(a1-4)Gal(b1-4)GlcNAc(b1-3)Gal(b1-4)Glc
# How it was run: as §1
# [34] = target: Gal(a1-4)GlcNAc
# How it was run: as §1
# [35] = target: Gal(a1-6)Glc
# How it was run: as §1
# [36] = target: Gal(b1-2)Gal
# How it was run: as §1
# [37] = target: Gal(b1-3)Gal(b1-4)GlcNAc
# How it was run: as §1
binder,measurement,setting,value
B1,glycan array binding signal (z-score),[1],-0.335
same,glycan array binding signal (z-score),[2],-0.246
same,glycan array binding signal (z-score),[3],-0.235
same,glycan array binding signal (z-score),[4],-0.349
same,glycan array binding signal (z-score),[5],0.598
same,glycan array binding signal (z-score),[6],-0.138
same,glycan array binding signal (z-score),[7],-0.242
same,glycan array binding signal (z-score),[8],-0.036
same,glycan array binding signal (z-score),[9],-0.309
same,glycan array binding signal (z-score),[10],-0.041
same,glycan array binding signal (z-score),[11],-0.239
same,glycan array binding signal (z-score),[12],-0.125
same,glycan array binding signal (z-score),[13],0.031
same,glycan array binding signal (z-score),[14],-0.335
same,glycan array binding signal (z-score),[15],-0.237
same,glycan array binding signal (z-score),[16],-0.29
same,glycan array binding signal (z-score),[17],-0.132
same,glycan array binding signal (z-score),[18],-0.164
same,glycan array binding signal (z-score),[19],1.43
same,glycan array binding signal (z-score),[20],-0.037
same,glycan array binding signal (z-score),[21],-0.232
same,glycan array binding signal (z-score),[22],-0.208
same,glycan array binding signal (z-score),[23],0.114
same,glycan array binding signal (z-score),[24],1.15
same,glycan array binding signal (z-score),[25],0.241
same,glycan array binding signal (z-score),[26],-0.223
same,glycan array binding signal (z-score),[27],-0.249
same,glycan array binding signal (z-score),[28],1.09
same,glycan array binding signal (z-score),[29],0.952
same,glycan array binding signal (z-score),[30],0.8
same,glycan array binding signal (z-score),[31],0.233
same,glycan array binding signal (z-score),[32],-0.229
same,glycan array binding signal (z-score),[33],-0.314
same,glycan array binding signal (z-score),[34],-0.294
same,glycan array binding signal (z-score),[35],-0.062
same,glycan array binding signal (z-score),[36],-0.184
same,glycan array binding signal (z-score),[37],0.516

# For convenience, some entries already given.
binder,measurement,setting,value
B1,glycan array binding signal (z-score),[35],-0.062
same,glycan array binding signal (z-score),[36],-0.184
